Assay results as given in paper PMC5006282.
The exact form of at least one protein or probe is not confirmed. At least one result comes from cells or an extract, where the contact may be indirect. For some assays here: Weaker means in comparison with the reference protein, sequence or condition of that experiment. At least one verdict was read from the data and is not stated in words by the source. For some assays here: Protein sequences can lack the tags named with them. For some assays here: The direction of at least one scale is not stated here.

Protein sequences, listed by entry. Tags and fused reporters are not part of them. Lines headed by an entry give the natural chain unless they say otherwise; changes in a name come on top. Residues count along the entry.
UniProt Q96EK4, whole entry: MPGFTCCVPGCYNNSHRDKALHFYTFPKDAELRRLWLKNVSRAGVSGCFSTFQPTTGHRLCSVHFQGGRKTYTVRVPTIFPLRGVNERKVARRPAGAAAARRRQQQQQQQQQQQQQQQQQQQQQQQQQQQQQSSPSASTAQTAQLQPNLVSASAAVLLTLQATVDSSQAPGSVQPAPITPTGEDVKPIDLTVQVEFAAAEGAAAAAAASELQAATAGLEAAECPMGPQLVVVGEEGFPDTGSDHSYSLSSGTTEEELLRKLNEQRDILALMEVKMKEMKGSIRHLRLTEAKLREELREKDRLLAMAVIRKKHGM
UniProt P09874, 2-1014: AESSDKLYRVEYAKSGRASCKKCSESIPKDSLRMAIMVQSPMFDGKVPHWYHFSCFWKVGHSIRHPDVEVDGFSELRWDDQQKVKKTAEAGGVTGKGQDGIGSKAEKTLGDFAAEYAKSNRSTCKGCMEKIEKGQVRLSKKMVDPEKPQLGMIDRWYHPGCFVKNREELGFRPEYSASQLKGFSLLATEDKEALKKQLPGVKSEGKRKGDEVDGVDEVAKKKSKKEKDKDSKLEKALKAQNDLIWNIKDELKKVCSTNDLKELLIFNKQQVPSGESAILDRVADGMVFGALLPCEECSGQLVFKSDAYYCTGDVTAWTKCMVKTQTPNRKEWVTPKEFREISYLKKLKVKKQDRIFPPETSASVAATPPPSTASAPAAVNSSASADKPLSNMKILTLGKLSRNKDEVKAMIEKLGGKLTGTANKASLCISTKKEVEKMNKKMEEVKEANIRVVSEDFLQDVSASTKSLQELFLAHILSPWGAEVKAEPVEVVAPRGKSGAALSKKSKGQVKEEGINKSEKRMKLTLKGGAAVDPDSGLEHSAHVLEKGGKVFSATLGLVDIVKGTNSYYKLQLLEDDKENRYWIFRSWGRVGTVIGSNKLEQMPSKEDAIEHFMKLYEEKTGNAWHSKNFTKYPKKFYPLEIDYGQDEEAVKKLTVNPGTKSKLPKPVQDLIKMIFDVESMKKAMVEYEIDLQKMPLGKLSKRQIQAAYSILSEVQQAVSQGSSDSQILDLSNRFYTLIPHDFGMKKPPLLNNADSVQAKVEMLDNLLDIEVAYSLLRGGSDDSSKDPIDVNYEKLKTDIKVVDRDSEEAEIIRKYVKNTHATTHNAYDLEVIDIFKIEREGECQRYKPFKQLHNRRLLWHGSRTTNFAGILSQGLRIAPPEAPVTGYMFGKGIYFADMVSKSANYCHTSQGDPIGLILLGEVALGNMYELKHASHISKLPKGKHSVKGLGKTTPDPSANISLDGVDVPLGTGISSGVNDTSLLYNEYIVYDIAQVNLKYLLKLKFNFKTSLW
UniProt Q9UKS7: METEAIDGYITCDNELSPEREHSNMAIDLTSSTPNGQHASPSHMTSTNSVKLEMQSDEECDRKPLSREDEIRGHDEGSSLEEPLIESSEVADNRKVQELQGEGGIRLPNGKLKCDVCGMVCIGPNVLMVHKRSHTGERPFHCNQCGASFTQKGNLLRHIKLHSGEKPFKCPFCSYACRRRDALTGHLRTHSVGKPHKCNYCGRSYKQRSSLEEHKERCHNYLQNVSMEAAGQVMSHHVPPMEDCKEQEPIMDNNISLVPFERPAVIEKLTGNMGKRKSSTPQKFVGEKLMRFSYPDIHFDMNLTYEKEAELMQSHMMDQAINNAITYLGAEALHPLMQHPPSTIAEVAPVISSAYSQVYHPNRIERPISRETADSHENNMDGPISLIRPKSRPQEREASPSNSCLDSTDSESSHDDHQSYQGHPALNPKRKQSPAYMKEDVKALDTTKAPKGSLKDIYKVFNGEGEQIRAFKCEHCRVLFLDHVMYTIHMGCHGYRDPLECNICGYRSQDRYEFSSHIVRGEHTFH
UniProt P51610: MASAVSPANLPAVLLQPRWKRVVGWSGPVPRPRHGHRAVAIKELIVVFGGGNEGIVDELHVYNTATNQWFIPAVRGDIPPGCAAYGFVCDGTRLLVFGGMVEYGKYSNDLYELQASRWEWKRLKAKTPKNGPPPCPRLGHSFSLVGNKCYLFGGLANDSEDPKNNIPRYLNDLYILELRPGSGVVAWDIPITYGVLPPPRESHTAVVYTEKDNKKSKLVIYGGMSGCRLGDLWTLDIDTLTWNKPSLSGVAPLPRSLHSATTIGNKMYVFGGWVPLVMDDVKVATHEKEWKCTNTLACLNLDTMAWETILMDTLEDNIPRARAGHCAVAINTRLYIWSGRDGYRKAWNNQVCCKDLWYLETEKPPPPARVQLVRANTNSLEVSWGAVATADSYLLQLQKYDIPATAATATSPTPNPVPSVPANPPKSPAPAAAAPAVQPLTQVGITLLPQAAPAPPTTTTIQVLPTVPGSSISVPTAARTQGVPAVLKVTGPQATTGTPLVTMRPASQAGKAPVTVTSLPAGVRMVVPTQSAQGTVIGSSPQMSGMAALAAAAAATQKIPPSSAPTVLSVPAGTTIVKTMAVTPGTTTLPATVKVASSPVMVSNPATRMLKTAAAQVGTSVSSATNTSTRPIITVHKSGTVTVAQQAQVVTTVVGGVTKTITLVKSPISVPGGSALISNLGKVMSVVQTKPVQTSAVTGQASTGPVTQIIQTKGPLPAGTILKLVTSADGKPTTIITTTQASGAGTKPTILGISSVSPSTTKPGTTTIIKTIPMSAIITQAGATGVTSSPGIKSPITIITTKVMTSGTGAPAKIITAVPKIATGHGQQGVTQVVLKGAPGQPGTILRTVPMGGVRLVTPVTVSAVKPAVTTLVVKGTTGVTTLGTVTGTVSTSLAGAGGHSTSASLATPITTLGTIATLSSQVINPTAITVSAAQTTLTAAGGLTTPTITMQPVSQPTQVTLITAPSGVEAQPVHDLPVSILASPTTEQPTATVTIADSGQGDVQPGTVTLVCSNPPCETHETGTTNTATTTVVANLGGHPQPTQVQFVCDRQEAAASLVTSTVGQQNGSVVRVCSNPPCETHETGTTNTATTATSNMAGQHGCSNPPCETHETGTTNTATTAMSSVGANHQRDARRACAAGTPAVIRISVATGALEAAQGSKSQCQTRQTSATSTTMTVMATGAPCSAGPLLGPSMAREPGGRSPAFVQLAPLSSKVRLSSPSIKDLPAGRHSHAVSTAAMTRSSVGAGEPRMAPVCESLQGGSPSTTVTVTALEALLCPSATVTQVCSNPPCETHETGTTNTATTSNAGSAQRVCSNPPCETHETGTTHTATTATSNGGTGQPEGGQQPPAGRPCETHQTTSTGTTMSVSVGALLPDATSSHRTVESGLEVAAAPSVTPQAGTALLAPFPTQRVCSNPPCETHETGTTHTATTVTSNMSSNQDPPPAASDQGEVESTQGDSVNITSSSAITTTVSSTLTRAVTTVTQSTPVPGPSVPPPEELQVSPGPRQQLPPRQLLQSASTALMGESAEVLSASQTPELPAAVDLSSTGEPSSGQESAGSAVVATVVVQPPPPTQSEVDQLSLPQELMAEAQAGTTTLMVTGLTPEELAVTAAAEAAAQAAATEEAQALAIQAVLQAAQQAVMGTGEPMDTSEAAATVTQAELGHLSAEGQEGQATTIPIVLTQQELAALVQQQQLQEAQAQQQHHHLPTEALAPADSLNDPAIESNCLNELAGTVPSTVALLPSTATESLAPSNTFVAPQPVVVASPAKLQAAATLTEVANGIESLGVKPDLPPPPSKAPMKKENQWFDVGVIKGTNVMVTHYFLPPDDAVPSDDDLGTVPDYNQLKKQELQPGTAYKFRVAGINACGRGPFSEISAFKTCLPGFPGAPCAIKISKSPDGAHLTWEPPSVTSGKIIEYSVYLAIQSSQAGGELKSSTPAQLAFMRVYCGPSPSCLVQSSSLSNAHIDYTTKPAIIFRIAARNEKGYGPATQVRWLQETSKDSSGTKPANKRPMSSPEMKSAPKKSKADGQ
UniProt Q9UKT9: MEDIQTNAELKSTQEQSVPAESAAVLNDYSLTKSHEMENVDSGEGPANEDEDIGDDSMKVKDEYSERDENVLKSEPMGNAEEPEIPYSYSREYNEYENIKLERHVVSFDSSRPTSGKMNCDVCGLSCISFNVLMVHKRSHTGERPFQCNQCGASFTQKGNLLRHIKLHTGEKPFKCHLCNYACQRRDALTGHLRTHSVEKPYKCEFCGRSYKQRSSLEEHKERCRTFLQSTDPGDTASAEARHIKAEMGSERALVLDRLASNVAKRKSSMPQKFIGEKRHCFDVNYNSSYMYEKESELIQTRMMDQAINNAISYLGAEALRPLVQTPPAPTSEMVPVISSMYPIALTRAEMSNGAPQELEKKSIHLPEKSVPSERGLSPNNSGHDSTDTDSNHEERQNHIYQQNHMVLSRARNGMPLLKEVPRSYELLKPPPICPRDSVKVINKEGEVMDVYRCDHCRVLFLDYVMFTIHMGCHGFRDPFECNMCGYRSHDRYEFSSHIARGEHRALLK

Columns and labels:
Test in all cases: pull-down MS
[1] = target: T1, NFKB1 (NF-kappa B p105/p50) (Homo sapiens (Raji, Molt4, HEK293)) (UniProt P19838); conditions: Raji nuclear extract, 5' biotin on sense strand, DNA immobilised on streptavidin beads in 20 mM Tris-HCl pH 8.0, 200 mM NaCl, 0.5 mM EDTA, 0.03% NP40, protein in an extract
T1 sequence (looked up, limits assumed): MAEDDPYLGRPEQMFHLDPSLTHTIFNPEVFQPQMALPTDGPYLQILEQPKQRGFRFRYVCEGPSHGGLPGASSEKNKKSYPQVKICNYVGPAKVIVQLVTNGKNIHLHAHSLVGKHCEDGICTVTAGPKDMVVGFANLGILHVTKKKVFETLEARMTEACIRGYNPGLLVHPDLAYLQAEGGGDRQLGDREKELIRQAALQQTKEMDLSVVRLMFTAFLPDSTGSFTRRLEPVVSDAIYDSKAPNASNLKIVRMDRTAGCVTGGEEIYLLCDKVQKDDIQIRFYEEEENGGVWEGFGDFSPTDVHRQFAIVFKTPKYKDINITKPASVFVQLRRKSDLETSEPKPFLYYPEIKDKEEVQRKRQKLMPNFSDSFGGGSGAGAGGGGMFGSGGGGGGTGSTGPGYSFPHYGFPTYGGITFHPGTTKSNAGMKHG

[2] = target: THAP11 (Homo sapiens (Raji, Molt4)) (UniProt Q96EK4); conditions: Raji nuclear extract; 5' biotin on sense strand; DNA immobilised on streptavidin beads in 20 mM Tris-HCl pH 8.0, 200 mM NaCl, 0.5 mM EDTA, 0.03% NP40; protein in an extract
[3] = target: PARP-1 (Homo sapiens (Raji)) (UniProt P09874); conditions: Raji nuclear extract; 5' biotin on sense strand; DNA immobilised on streptavidin beads in 20 mM Tris-HCl pH 8.0, 200 mM NaCl, 0.5 mM EDTA, 0.03% NP40; protein in an extract
[4] = target: NFKB2 (NF-kappa B p100/p52) (Homo sapiens (Raji)) (UniProt Q00653); conditions: Raji nuclear extract; 5' biotin on sense strand; DNA immobilised on streptavidin beads in 20 mM Tris-HCl pH 8.0, 200 mM NaCl, 0.5 mM EDTA, 0.03% NP40; protein in an extract
[5] = target: Helios (Homo sapiens (Raji)) (UniProt Q9UKS7); conditions: Raji nuclear extract; 5' biotin on sense strand; DNA immobilised on streptavidin beads in 20 mM Tris-HCl pH 8.0, 200 mM NaCl, 0.5 mM EDTA, 0.03% NP40; protein in an extract
[6] = target: HCF-1 (Homo sapiens (Raji, Molt4)) (UniProt P51610); conditions: Raji nuclear extract; 5' biotin on sense strand; DNA immobilised on streptavidin beads in 20 mM Tris-HCl pH 8.0, 200 mM NaCl, 0.5 mM EDTA, 0.03% NP40; protein in an extract
[7] = target: Ikaros (Homo sapiens (Raji, Molt4 nuclear extract)) (UniProt Q13422); conditions: 5' biotin on sense strand, DNA immobilised on streptavidin beads in 20 mM Tris-HCl pH 8.0, 200 mM NaCl, 0.5 mM EDTA, 0.03% NP40, protein in an extract
[8] = target: Aiolos (Homo sapiens (Raji)) (UniProt Q9UKT9); conditions: Raji nuclear extract; 5' biotin on sense strand; DNA immobilised on streptavidin beads in 20 mM Tris-HCl pH 8.0, 200 mM NaCl, 0.5 mM EDTA, 0.03% NP40; protein in an extract

| Sequence | binding signal (SILAC ratio WT/MT) ([1]; indirect) | binding signal (SILAC ratio WT/MT) [2] | binding signal (SILAC ratio WT/MT) [3] | binding result [4] | binding result [1] | binding result [2] | binding result [5] | binding result [6] | binding result [3] | binding result [7] | binding result [8] |
| --- | --- | --- | --- | --- | --- | --- | --- | --- | --- | --- | --- |
| CAAAACTGCAGGCAACTAGAACTACATTTCCCGGCGTGATTTGCTGCGGAACGAACTACATCTCCCGGCAGGCTGCG (double strand) [Tandem M4 WT] | 19 | 11 | 1 | – | – | – | – | – | – | – | – |
| CAAAACTGCAGGCAACTAGACATCAATTTCTGGGCGTGATTTGCTGCGGAACGACATCAATCTCTGGGCAGGCTGCG (double strand) [Tandem M4 MT] | – | – | – | binds more weakly | binds more weakly | binds more weakly | binds more weakly | binds more weakly | binds | binds more weakly | binds more weakly |
